From the supplement of paper PMC10849652
The list shows a part of the results.

Amino acid sequences for entries named in this document (tags omitted). A change or cut given only in a name is not applied to a line headed by its entry.
UniProt Q6PK18: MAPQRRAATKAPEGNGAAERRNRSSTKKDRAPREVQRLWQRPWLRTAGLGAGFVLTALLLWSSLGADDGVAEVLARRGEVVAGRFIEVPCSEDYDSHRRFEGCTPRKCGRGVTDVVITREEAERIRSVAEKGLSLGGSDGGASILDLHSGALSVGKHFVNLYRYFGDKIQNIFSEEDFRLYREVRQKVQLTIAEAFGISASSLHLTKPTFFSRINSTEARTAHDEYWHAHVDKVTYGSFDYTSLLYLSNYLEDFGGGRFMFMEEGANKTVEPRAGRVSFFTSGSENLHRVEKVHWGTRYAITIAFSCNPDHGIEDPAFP
UniProt Q96E22: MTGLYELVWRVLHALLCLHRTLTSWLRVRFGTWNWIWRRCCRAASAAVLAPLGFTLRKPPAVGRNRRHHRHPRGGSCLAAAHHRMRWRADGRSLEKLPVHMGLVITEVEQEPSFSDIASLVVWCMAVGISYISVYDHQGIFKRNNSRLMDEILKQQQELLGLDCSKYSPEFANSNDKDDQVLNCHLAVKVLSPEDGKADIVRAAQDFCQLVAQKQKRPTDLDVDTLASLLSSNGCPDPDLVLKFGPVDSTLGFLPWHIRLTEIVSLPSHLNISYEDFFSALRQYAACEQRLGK
UniProt Q02218: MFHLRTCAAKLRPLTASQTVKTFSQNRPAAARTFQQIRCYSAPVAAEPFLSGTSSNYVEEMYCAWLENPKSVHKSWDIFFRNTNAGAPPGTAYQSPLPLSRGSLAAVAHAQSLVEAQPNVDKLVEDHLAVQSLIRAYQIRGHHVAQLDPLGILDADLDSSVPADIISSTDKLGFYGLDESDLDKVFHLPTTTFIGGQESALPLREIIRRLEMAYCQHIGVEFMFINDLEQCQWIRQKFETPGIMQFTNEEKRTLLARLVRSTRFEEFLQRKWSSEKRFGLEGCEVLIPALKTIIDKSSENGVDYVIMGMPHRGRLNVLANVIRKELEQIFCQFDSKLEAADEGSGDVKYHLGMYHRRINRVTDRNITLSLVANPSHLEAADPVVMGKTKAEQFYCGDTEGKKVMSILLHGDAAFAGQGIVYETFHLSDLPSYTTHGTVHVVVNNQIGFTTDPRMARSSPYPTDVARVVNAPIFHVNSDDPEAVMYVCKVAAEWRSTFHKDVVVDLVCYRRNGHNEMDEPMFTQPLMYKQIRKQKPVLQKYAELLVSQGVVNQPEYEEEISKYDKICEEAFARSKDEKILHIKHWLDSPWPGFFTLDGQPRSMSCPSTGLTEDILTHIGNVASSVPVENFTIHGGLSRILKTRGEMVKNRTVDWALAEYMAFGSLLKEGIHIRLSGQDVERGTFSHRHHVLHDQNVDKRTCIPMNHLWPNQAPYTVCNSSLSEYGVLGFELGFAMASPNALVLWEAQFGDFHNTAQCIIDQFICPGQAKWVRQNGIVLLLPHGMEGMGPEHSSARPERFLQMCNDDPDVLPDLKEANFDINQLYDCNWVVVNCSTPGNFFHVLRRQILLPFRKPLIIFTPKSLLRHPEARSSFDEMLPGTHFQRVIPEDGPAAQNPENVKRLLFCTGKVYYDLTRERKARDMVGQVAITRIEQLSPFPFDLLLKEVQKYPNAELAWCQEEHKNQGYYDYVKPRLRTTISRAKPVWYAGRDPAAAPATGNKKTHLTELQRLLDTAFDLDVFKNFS
UniProt P13674: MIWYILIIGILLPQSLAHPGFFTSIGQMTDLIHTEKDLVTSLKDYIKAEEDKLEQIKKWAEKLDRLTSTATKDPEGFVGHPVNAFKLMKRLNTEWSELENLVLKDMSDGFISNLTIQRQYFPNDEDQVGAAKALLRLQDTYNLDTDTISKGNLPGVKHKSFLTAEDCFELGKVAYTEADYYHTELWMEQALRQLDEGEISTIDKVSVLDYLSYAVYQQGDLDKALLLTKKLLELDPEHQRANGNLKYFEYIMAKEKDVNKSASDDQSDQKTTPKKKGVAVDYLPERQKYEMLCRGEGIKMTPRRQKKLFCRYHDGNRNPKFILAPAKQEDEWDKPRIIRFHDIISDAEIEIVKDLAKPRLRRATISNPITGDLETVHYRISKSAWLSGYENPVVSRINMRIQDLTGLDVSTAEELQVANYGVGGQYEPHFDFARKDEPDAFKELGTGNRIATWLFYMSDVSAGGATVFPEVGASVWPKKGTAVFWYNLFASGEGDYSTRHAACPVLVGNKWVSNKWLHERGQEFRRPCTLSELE
UniProt P61970, whole entry, looked up: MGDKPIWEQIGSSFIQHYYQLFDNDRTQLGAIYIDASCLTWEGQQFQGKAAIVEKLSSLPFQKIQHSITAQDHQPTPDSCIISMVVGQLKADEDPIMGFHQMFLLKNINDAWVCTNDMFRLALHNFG
UniProt P49902: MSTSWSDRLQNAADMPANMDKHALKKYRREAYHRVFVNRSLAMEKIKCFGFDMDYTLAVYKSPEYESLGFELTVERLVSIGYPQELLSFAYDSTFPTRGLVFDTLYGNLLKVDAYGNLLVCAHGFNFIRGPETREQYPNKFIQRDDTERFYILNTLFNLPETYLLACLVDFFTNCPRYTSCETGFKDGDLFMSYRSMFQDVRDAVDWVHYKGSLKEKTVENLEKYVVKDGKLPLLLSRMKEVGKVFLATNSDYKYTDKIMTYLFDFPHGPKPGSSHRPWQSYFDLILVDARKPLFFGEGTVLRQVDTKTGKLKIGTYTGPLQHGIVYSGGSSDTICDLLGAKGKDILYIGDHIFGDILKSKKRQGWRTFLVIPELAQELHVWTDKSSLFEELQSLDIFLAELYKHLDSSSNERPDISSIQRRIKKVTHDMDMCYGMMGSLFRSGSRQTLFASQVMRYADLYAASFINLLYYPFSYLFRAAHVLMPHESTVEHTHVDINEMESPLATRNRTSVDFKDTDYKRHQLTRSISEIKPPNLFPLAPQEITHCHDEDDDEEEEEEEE
UniProt O43929: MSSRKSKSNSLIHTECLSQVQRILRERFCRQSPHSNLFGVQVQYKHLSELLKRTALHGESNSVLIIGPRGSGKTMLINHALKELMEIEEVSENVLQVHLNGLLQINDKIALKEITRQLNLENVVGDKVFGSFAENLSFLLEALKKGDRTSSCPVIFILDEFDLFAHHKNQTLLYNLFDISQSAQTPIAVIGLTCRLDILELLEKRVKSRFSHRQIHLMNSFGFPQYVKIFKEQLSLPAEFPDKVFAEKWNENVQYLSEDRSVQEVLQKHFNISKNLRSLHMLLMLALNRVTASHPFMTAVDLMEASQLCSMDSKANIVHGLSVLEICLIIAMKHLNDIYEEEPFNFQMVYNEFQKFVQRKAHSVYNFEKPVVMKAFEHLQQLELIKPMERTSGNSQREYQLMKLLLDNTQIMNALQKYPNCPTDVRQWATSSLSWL
UniProt P11940, whole entry, looked up: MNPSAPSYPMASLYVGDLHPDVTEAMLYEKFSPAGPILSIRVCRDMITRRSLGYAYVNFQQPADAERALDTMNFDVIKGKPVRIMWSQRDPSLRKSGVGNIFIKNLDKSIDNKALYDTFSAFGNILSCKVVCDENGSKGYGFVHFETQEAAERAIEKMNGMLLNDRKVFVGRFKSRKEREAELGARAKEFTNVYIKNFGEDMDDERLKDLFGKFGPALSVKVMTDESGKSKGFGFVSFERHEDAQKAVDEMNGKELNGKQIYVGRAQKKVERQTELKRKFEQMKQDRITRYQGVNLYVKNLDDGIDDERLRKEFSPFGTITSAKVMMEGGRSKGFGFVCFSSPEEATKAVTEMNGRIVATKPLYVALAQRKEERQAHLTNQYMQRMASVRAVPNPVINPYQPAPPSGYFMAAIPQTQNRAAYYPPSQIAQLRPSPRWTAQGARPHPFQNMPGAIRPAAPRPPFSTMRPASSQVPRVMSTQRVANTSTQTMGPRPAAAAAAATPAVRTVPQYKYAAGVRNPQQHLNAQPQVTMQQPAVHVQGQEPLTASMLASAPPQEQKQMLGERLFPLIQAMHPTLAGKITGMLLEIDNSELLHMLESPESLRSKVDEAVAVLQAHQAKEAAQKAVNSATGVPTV
UniProt Q8NFH4: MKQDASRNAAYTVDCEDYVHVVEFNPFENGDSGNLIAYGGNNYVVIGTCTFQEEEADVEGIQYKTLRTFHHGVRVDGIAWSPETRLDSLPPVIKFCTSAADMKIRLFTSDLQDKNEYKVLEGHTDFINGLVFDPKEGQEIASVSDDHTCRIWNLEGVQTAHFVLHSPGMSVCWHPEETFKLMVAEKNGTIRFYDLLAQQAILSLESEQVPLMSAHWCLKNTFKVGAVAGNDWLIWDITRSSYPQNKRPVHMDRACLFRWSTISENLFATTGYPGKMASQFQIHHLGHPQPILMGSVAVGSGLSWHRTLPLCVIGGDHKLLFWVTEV
UniProt Q6GQQ9: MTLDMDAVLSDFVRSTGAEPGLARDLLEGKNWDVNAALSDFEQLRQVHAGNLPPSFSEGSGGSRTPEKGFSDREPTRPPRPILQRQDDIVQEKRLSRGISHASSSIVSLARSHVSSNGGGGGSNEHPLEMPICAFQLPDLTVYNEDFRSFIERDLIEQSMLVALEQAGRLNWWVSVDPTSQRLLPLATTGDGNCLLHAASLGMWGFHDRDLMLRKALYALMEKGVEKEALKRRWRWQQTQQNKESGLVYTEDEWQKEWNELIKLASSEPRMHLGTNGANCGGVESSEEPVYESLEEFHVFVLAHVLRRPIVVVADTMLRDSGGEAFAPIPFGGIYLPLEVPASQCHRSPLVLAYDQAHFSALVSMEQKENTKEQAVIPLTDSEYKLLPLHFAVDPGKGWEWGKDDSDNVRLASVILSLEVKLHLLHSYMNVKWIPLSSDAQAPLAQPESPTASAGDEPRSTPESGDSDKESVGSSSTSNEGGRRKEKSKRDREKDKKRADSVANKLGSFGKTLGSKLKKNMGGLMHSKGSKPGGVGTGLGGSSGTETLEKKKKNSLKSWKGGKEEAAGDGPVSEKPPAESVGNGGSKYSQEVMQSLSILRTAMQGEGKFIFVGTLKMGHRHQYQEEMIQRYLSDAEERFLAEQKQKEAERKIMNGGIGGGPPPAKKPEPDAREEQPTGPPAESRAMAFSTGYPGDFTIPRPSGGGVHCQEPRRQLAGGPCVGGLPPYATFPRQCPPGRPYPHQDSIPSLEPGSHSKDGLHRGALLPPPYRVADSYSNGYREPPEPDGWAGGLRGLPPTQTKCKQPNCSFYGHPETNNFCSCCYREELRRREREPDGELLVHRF
UniProt P49790, whole entry, looked up: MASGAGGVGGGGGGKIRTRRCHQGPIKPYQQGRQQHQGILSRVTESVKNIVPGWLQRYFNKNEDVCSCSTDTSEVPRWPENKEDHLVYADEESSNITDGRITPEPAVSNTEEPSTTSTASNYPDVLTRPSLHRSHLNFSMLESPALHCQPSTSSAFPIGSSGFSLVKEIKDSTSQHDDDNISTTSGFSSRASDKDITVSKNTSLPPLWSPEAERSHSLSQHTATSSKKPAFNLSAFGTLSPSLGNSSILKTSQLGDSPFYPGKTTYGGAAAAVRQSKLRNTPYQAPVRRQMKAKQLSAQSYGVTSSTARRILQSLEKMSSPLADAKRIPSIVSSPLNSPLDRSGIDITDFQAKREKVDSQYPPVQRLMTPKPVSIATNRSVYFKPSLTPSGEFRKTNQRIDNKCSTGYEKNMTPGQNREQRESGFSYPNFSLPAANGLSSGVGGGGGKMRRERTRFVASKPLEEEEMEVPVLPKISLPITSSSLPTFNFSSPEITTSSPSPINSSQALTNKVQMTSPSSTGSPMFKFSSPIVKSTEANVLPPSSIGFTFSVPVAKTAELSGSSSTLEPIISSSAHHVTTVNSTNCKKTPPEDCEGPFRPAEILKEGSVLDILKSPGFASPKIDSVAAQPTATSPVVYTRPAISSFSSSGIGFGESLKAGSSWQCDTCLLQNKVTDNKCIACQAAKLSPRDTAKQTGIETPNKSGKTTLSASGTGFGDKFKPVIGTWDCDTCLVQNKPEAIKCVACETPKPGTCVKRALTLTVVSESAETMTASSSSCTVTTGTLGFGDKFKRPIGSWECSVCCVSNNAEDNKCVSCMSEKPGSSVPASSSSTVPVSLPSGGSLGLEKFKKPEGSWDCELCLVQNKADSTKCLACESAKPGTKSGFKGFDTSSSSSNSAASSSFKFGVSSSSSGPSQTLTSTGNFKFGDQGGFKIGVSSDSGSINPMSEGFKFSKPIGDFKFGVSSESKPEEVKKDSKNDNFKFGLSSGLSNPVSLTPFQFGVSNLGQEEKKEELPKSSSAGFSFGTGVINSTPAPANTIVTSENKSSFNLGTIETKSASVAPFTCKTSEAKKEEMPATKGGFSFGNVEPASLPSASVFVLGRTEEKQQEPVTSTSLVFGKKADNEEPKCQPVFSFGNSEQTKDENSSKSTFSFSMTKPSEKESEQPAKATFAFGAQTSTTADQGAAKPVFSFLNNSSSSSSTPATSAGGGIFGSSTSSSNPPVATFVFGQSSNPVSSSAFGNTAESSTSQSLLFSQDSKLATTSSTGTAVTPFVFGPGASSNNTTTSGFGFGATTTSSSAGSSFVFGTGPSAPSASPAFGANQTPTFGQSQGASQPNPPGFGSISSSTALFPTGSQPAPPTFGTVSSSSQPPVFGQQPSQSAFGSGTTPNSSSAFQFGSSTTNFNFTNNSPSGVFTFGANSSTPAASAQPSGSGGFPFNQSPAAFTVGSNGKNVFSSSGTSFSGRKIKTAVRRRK

Compound: COC1=CC=C(C=C1)CN2C=CC3=C2C=C(C=C3)C(=O)NO
Experiment: log2 fold change, soluble protein after heating vs DMSO (PISA); higher = thermal stabilisation; K562 cells, 10 uM, 30 min; active = over 0.2 and 3.5 SD of the protein, either way, in both replicates (recomputed)
Summary of the method: (§1)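 Soluble protein was defined as the supernatant after 21,000xg for 90 min. It came from K562 cells at 2×10^6 cells/mL given 10 μM compound for 30 min, heated in aliquots for 3 min across 48°C-58°C, pooled, and extracted in PBS with 0.5% NP-40 at 4°C, and was quantified by TMTpro 16plex LC-MS/MS with equalised channel sums. Thermal stability against control samples, from duplicates, is reported as log2 fold change.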

log2 fold change, inactive:
OGFOD3 isoform 2 (UniProt Q6PK18) -0.211
NUS1 (UniProt Q96E22) 0.119
NUBPL (UniProt Q8TB37) 0.051
NUP42 (UniProt O15504) -0.026
OGDH (UniProt Q02218) 0.101
P4HA1 isoform 2 (UniProt P13674) -0.198
NT5DC2 isoform 2 (UniProt Q9H857) -0.005
NUTF2 (UniProt P61970) 0.028

Compound: CON(C)C(=O)N1N=C(c2cc(F)ccc2F)S[C@@]1(CCCN)c1ccccc1 [filanesib]
Experiment: as above
Summary of the method: as §1

log2 fold change, inactive:
NT5C2 (UniProt P49902) -0.018
ORC4 (UniProt O43929) -0.086
NUDT16L1 (UniProt Q9BRJ7) 0.019
OS9 (UniProt Q13438) 0.014
NUDT19 (UniProt A8MXV4) 0.02
PABPC1 (UniProt P11940) 0.07
NT5DC3 (UniProt Q86UY8) -0.018
NUP37 (UniProt Q8NFH4) -0.001
OPTN (UniProt Q96CV9) 0.08
NUP43 (UniProt Q8NFH3) -0.024
OTUD7B (UniProt Q6GQQ9) 0.024
NSUN6 (UniProt Q8TEA1) -0.054
NUP153 (UniProt P49790) 0.072
P4HA1 (UniProt P13674) 0.096
OTUB1 (UniProt Q96FW1) -0.064

A portion taken from the entries so far, as a working copy:
log2 fold change, inactive:
NUP43 (UniProt Q8NFH3) -0.024
OTUD7B (UniProt Q6GQQ9) 0.024
NSUN6 (UniProt Q8TEA1) -0.054
NUP153 (UniProt P49790) 0.072
P4HA1 (UniProt P13674) 0.096
OTUB1 (UniProt Q96FW1) -0.064
